Experiment: peptide synthesis
Conditions: late stage modification step; for final HPLC purity: reversed-phase HPLC

Substance	step yield	final HPLC purity
Aminooxy-Cys-MC-VC-PABC-PEG8-Dol10	46%	>96%
Aminooxy-Cys-MC-VC-PABC-MMAE	62%	>96%

— US12503498B2 (Genzyme Corporation, priority 2012, dated 2025)
